# Screening data

The results are deposited in PubChem (AID743020; Broad Institute, 2013).

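HEK293 cells carrying a CMV promoter luciferase reporter, with luminescence read 24 h after treatment to check for nonspecific loss of reporter signal.
Percent change in reporter signal versus neutral control wells at the top tested concentration; more negative values mean stronger inhibition.
Inconclusive means the independent runs disagreed, the fit was flat at 30 to 70% inhibition, or the curve fit was poor.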

Values are in %.
Every entry below has the call inconclusive.
Only part of the assay is shown, chiefly results filed as inconclusive.

structure	tested on / at	activity change (%)
Cn1c(=O)[nH]c(=O)c2c1nc([N+](=O)[O-])n2Cc1ccccc1	at 35 µM (top of the series)	-29.86
O=C(C(=O)N(Cc1ccccc1)Cc1ccccc1)c1c(-c2ccccc2)[nH]c2ccccc12	at 35 µM (top of the series)	-21.24
COc1c(C=O)c2c(c(OC)c1OC)-c1ccc(OC)c(=O)cc1C(NC(C)=O)CC2 (stereo unspecified)	at 35 µM (top of the series)	-43.27
CN(C[C@H]1N[C@@H](CO)[C@@H]1c1ccc(-c2cccnc2)cc1)C(=O)c1ccccc1	at 35 µM (top of the series)	1.094
Cc1cccc2sc(N(CCCN(C)C)C(=O)CCS(=O)(=O)c3ccccc3)nc12	at 35 µM (top of the series)	-77.44
Cn1nnnc1Sc1ncnc2scc(-c3cccc(S(C)(=O)=O)c3)c12	at 35 µM (top of the series)	19.36
COc1cc2nc(C3CCC3)nc(N3CCN(c4ccccc4OC)CC3)c2cc1OC	at 35 µM (top of the series)	-71.54
Cn1ccnc1SCc1nc2c(cnn2-c2ccccc2)c(=O)[nH]1	at 35 µM (top of the series)	2.079
CN(C)CCCN(C(=O)CCOc1ccccc1)c1nc2c(F)cccc2s1	at 35 µM (top of the series)	0.49
C[C@H](CO)N1C[C@H](C)[C@H](CN(C)CC2CCCCC2)OCCCC[C@H](C)Oc2ccc(NC(=O)Nc3ccccc3)cc2C1=O	at 35 µM (top of the series)	-29.34
CCCc1ccc(C(=O)O/N=C(\N)c2ccccn2)cc1	at 35 µM (top of the series)	-39.13
O=[N+]([O-])c1ccc(N/N=C/c2sc(N3CCOCC3)nc2-c2ccccc2)c(S(=O)(=O)Nc2ccc(Cl)cc2)c1	at 35 µM (top of the series)	-69.68
CCOc1ccccc1C1C2=C(COC2=O)Nc2cc3c(cc21)OCO3 (stereo unspecified)	at 35 µM (top of the series)	-6.839
COc1ccc2oc(C)c(C(=O)c3ccc([N+](=O)[O-])cc3)c2c1	at 35 µM (top of the series)	4.828
O=C(C[C@@H]1CC[C@@H]2[C@H](COC[C@@H](O)CN2C(=O)Nc2ccc(C(F)(F)F)cc2)O1)NC1Cc2ccccc2C1	at 35 µM (top of the series)	-17.93
Cc1cc(C(C)(C)C)cc(C)c1Cn1c2[n+](c3ccc(C(F)(F)F)cc31)CCCCC2	at 35 µM (top of the series)	-41.24
C=C1C(=O)[C@]23C[C@H]1CCC2[C@]1(C)CCC[C@@](C)(C(=O)O)C1C[C@@H]3O (stereo partly specified)	at 35 µM (top of the series)	-30.59
CN(C(=O)OC(C)(C)C)c1ccc(-c2nc3ccccc3s2)cc1	at 35 µM (top of the series)	-99.66
Oc1cccc2cc(Nc3ccccc3)cnc12	at 35 µM (top of the series)	-30.3
COc1cccc(/C=N/Nc2ccc([N+](=O)[O-])cn2)c1O	at 35 µM (top of the series)	17.51
Cn1cnc(S(=O)(=O)N2C[C@@H]3N[C@H](C2)C3c2ccc(-c3ccccc3F)cc2)c1 (stereo partly specified)	at 35 µM (top of the series)	-45.04
C[C@@H]1CCCCO[C@H](CN(C)Cc2ccc(Cl)c(Cl)c2)[C@H](C)CN([C@@H](C)CO)C(=O)c2cc(NS(=O)(=O)c3ccc(Cl)cc3)ccc2O1	at 35 µM (top of the series)	-25.23
COc1cc2c(c(OC)c1OC)-c1ccc(SC)c(=O)cc1C(NC(=O)C(F)(F)F)CC2 (stereo unspecified)	at 35 µM (top of the series)	-51.31
COc1cc(C2C3=C(Nc4ncnn42)c2ccccc2CC3)cc(OC)c1OC (stereo unspecified)	at 35 µM (top of the series)	-43.33
COc1ccc(-n2nnnc2C(CCc2ccccc2)N2CCC(n3c(=O)[nH]c4ccccc43)CC2)cc1 (stereo unspecified)	at 35 µM (top of the series)	-67.69
C[C@]12CC[C@H](O)C[C@H]1CC[C@@H]1[C@@H]2C[C@@H](O)[C@]2(C)[C@@H](C3=CC(=O)OC3)CC[C@]12O	at 35 µM (top of the series)	-8.624
COC(=O)c1ccccc1-c1c2ccc(=N)cc-2oc2cc(N)ccc12	at 35 µM (top of the series)	-70.63
NC1=CC(=O)C(=O)c2cccnc21	at 35 µM (top of the series)	-99.25
C[C@@H]1CN([C@@H](C)CO)S(=O)(=O)c2ccc(C#Cc3ccccc3F)cc2O[C@H]1CN(C)C(=O)Cc1ccccc1	at 35 µM (top of the series)	-40.1
C#CCN(C[C@@H]1[C@@H](OC(=O)NCc2ccccc2F)[C@@H](OC(=O)NCc2ccccc2F)Cn2c(=O)ccc(=O)n21)S(=O)(=O)c1ccc(C)cc1	at 35 µM (top of the series)	-26.18
C[C@@H]1CCCCO[C@@H](CN(C)S(=O)(=O)c2ccc(Cl)cc2)[C@H](C)CN([C@H](C)CO)C(=O)c2cc(NS(=O)(=O)c3ccc(Cl)cc3)ccc2O1	at 35 µM (top of the series)	-22.89
C=C(C(=O)c1ccccc1)C(C(=C)C(=O)c1ccccc1)c1ccc(OC)cc1	at 35 µM (top of the series)	-28.02
COc1cccc2c1C(=O)c1c(O)c3c(c(O)c1C2=O)CC(O)(C(C)=O)CC3OC1CC(N(C)C)C(O)C(C)O1 (stereo unspecified)	at 35 µM (top of the series)	-70.58
COc1ccc(N(C(=O)CCl)C(C(=O)NCCc2ccccc2)c2cccs2)cc1Cl (stereo unspecified)	at 35 µM (top of the series)	-56.13
C[C@H]1CN([C@@H](C)CO)C(=O)c2c(c3ccccc3n2C)-c2ccccc2CO[C@@H]1CN(C)S(=O)(=O)c1cccc(F)c1	at 35 µM (top of the series)	-16.12
Cc1cc(O)c(C(C)C)cc1C1(c2cc(C(C)C)c(O)cc2C)OC(=O)c2ccccc21	at 35 µM (top of the series)	-15.29
CC(=O)OC1CC(OC2C(O)CC(OC3C(O)CC(OC4CCC5(C)C(CCC6C5CCC5(C)C(C7=CC(=O)OC7)C(O)CC65O)C4)OC3C)OC2C)OC(C)C1OC1OC(CO)C(O)C(O)C1O (stereo unspecified)	at 35 µM (top of the series)	-99.64

Once more, the final 3:

structure,tested on / at,activity change (%)
C[C@H]1CN([C@@H](C)CO)C(=O)c2c(c3ccccc3n2C)-c2ccccc2CO[C@@H]1CN(C)S(=O)(=O)c1cccc(F)c1,at 35 µM (top of the series),-16.12
Cc1cc(O)c(C(C)C)cc1C1(c2cc(C(C)C)c(O)cc2C)OC(=O)c2ccccc21,at 35 µM (top of the series),-15.29
CC(=O)OC1CC(OC2C(O)CC(OC3C(O)CC(OC4CCC5(C)C(CCC6C5CCC5(C)C(C7=CC(=O)OC7)C(O)CC65O)C4)OC3C)OC2C)OC(C)C1OC1OC(CO)C(O)C(O)C1O (stereo unspecified),at 35 µM (top of the series),-99.64